According to the supplement of paper PMC10382679:
Single values of this set are uncertain.

B1: Rpb7; numbered along this chain (parent)
chain: MFFIKDLSLNITLHPSFFGPRMKQYLKTKLLEEVEGSCTGKFGYILCVLDYDNIDIQRGRILPTDGSAEFNVKYRAVVFKPFKGEVVDGTVVSCSQHGFEVQVGPMKVFVTKHLMPQDLTFNAGSNPPSYQSSEDVITIKSRIRVKIEGCISQVSSIHAIGSIKEDYLGAI

Columns and labels:
[1] = variants of: B1; experiment: log2 fold change of mutant abundance, UV-irradiated vs unirradiated; higher = more UV resistant (enriched after UV); conditions: with Saccharomyces cerevisiae rad7Δ rad26Δ; UV dose (J/m2): 10; genetic background: rad7Δ rad26Δ rpb7Δ + plasmid RPB7 library; outgrowth: 10 cell divisions
[2] = variants of: B1; experiment: NOISeq theta enrichment statistic, UV-irradiated vs unirradiated (dimensionless); higher = more UV resistant (enriched after UV); conditions: with Saccharomyces cerevisiae rad7Δ rad26Δ; UV dose (J/m2): 10; genetic background: rad7Δ rad26Δ rpb7Δ + plasmid RPB7 library; outgrowth: 10 cell divisions

Row | Variant | log2 fold change of mutant abundance [1] | NOISeq theta enrichment statistic [2]
1 | Q153Y | -0.957 | -0.449
2 | Q153N | 0.443 | 0.196
3 | Q153H | 0.236 | 1.23
4 | D65V | 0.176 | 0.798
5 | D65M | 0.0943 | 0.108
6 | F99V | 0.0211 | 0.115
7 | F121S | -0.299 | -0.67
8 | T111D | 0.181 | 0.179
9 | T111V | 0.845 | 0.682
10 | T111S | -0.551 | -1.89
11 | D166V | -0.114 | -0.249
12 | G89C | -0.0213 | -0.0641
13 | G89I | 0.128 | 0.0696
14 | K73N | 0.0298 | 0.0349
15 | K73V | 0.0366 | 0.182
16 | K73H | 0.349 | 0.281
17 | K73G | -0.022 | -0.135
18 | K73A | -0.112 | -0.398
19 | S141D | 0.33 | 0.299
20 | L26R | 0.272 | 0.293
21 | L26I | -0.173 | -0.442
22 | V145E | 0.0903 | 0.062
23 | D135H | -0.271 | -0.328

Row | Variant | log2 fold change of mutant abundance [1] | NOISeq theta enrichment statistic [2]
24 | D135K | 0.289 | 0.199
25 | D135S | -0.183 | -0.14
26 | I151V | -0.0244 | -0.0829
27 | P81Q | 0.0106 | 0.064
28 | E69V | -0.0216 | -0.131
29 | E69T | -0.0457 | -0.038
30 | G98Q | 0.092 | 0.0819
31 | D6G | 0.116 | 0.243
32 | D6V | 0.103 | 0.27
33 | L114Q | -0.571 | -1.56
34 | L62C | -0.0536 | -0.0683
35 | K140Q | -0.0505 | -0.0882
36 | K80Q | -0.0372 | -0.0913
37 | K80L | 0.0456 | 0.0448
38 | K80E | -0.199 | -0.742
39 | S155Y | 0.195 | 0.106
40 | I61L | 0.201 | 1.02
41 | P128S | -0.174 | -0.405
42 | V110R | 0.071 | 0.0669
43 | V110E | 0.0411 | 0.0949
44 | F3R | 1.18 | 0.713
45 | F3S | -0.00578 | -0.00987
46 | E165R | 0.0386 | 0.0231

Laid out differently: entries from further up.
Row	Variant	log2 fold change of mutant abundance [1]	NOISeq theta enrichment statistic [2]
11	D166V	-0.114	-0.249
12	G89C	-0.0213	-0.0641
13	G89I	0.128	0.0696
14	K73N	0.0298	0.0349
15	K73V	0.0366	0.182
16	K73H	0.349	0.281
17	K73G	-0.022	-0.135
18	K73A	-0.112	-0.398
19	S141D	0.33	0.299
20	L26R	0.272	0.293
21	L26I	-0.173	-0.442
22	V145E	0.0903	0.062
23	D135H	-0.271	-0.328
24	D135K	0.289	0.199
25	D135S	-0.183	-0.14
26	I151V	-0.0244	-0.0829
27	P81Q	0.0106	0.064
28	E69V	-0.0216	-0.131
29	E69T	-0.0457	-0.038
30	G98Q	0.092	0.0819
31	D6G	0.116	0.243
32	D6V	0.103	0.27
33	L114Q	-0.571	-1.56

More entries follow.

Row | Variant | log2 fold change of mutant abundance [1] | NOISeq theta enrichment statistic [2]
47 | S95L | 0.0316 | 0.18
48 | S95R | 0.161 | 0.119
49 | S95T | -0.0573 | -0.253
50 | F2C | -0.16 | -0.114
51 | L46V | 0.064 | 0.0772
52 | L46I | 0.0777 | 0.22
53 | P63T | 0.0672 | 0.214
54 | P63R | 0.105 | 0.189
55 | K164D | -0.257 | -0.134
56 | K164I | 0.0154 | 0.0393
57 | K164Q | -0.023 | -0.0432
58 | K164E | 0.00882 | 0.02
59 | K164S | 0.749 | 0.358
60 | G104C | 0.000773 | 0.00192
61 | G104H | -0.342 | -0.22
62 | G104M | -0.0502 | -0.0358
63 | Q57P | 0.0285 | 0.052
64 | E33T | 2.54 | 1.33
65 | E33Q | 0.217 | 0.185
66 | E33V | -0.134 | -0.299
67 | E33S | -0.212 | -0.144
68 | Q102N | 0.121 | 0.216
69 | Q102G | -0.0211 | -0.0181

Row | Variant | log2 fold change of mutant abundance [1] | NOISeq theta enrichment statistic [2]
70 | K5P | 0.566 | 0.536
71 | D55V | -0.162 | -0.806
72 | D55A | 0.057 | 0.0846
73 | D55S | -0.273 | -0.205
74 | I143H | 0.342 | 0.253
75 | I143K | -0.407 | -0.181
76 | S156P | -0.477 | -0.719
77 | L31V | 0.222 | 0.319
78 | L31F | 0.0178 | 0.0593
79 | V154L | 0.171 | 0.42
80 | R60C | 1.05 | 0.62
81 | A76D | 0.0251 | 0.0546
82 | A76F | -0.365 | -0.368
83 | P116N | -0.0504 | -0.0483
84 | M22R | -0.353 | -0.401
85 | M22L | 0.0705 | 0.399
86 | S125Q | -0.262 | -0.212
87 | F82M | -0.106 | -0.0837
88 | F82I | 0.0473 | 0.229
89 | T64Q | 0.00212 | 0.0029
90 | T64K | 0.08 | 0.185
91 | T64M | 0.369 | 0.213
92 | Q96D | 0.0731 | 0.0841

Row | Variant | log2 fold change of mutant abundance [1] | NOISeq theta enrichment statistic [2]
93 | Q96S | 0.0449 | 0.104
94 | I171Y | 0.809 | 0.519
95 | I171F | 0.0101 | 0.0243
96 | I171K | 0.696 | 0.326
97 | Y167I | -0.547 | -0.426
98 | M115D | 0.0664 | 0.0727
99 | P20H | 0.179 | 0.554
100 | P20Q | -0.5 | -0.229
101 | V72L | 0.0508 | 0.183
102 | V72E | -0.0385 | -0.0689
103 | V108G | 0.0761 | 0.477
104 | V108F | -0.157 | -0.146
105 | V108Q | 0.202 | 0.187
106 | V108S | 0.167 | 0.179
107 | V108A | 0.0925 | 0.199
108 | K23Y | -0.0124 | -0.00654
109 | K112V | -0.323 | -0.179
110 | N71S | 0.0378 | 0.227
111 | N71Y | 0.0341 | 0.252
112 | N71V | -0.9 | -0.515
113 | N71F | -0.249 | -0.21
114 | Y25L | 0.403 | 0.241
115 | Y25H | 0.239 | 0.75
